Measurements taken from paper PMC11554567.
These are yes or no findings as the source states them, for the method shown. Binding seen in cells or lysates may run through a third protein. Some entries that bind do so weakly or less than the wild type.

By UniProt entry, the sequences of proteins in these tests, tags left out.
UniProt Q9UH17: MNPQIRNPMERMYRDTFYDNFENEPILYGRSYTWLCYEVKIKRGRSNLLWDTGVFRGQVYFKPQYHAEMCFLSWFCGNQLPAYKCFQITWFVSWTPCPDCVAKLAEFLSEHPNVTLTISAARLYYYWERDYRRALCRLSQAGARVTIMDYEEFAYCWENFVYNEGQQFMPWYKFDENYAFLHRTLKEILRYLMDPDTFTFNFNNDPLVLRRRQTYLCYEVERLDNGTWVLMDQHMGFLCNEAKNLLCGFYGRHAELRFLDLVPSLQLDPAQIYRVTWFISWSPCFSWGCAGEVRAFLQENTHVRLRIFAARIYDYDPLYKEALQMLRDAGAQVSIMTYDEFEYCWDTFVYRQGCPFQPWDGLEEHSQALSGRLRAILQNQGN
UniProt P35637: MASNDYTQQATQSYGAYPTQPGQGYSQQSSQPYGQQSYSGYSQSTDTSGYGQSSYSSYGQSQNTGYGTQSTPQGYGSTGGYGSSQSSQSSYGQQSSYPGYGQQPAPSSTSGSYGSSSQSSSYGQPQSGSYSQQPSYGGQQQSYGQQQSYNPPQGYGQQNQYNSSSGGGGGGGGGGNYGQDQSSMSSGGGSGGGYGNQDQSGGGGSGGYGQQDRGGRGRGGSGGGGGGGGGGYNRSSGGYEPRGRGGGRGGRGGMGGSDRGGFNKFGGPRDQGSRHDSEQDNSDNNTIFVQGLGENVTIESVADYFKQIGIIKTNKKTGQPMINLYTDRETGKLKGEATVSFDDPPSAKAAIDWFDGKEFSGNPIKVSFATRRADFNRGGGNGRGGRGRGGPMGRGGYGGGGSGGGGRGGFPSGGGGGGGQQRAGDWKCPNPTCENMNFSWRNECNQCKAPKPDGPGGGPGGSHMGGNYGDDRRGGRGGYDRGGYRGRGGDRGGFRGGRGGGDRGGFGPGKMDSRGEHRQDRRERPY

B1: NONO (protein, UniProt Q15233 1-471)
chain: MQSNKTFNLEKQNHTPRKHHQHHHQQQHHQQQQQQPPPPPIPANGQQASSQNEGLTIDLKNFRKPGEKTFTQRSRLFVGNLPPDITEEEMRKLFEKYGKAGEVFIHKDKGFGFIRLETRTLAEIAKVELDNMPLRGKQLRVRFACHSASLTVRNLPQYVSNELLEEAFSVFGQVERAVVIVDDRGRPSGKGIVEFSGKPAARKALDRCSEGSFLLTTFPRPVTVEPMDQLDDEEGLPEKLVIKNQQFHKEREQPPRFAQPGSFEYEYAMRWKALIEMEKQQQDQVDRNIKEAREKLEMEMEAARHEHQVMLMRQDLMRRQEELRRMEELHNQEVQKRKQLELRQEEERRRREEEMRRQQEEMMRRQQEGFKGTFPDAREQEIRMGQMAMGGAMGINNRGAMPPAPVPAGTPAPPGPATMMPDGTLGLTPPTTERFGQAATMEGIGAIGGTPPAFNRAAPGAEFAPNKRRRY

Molecular target: APOBEC3B (human) (UniProt Q9UH17)
Assay: co-IP; co-immunoprecipitation of A3B in T-47D cells; association persisted after removal of nucleic acids by benzonase treatment

| Molecule | binding |
| --- | --- |
| FUS (from UniProt P35637 1-526) | binds |
| B1 | binds |
